Measurements: US20210332334A1
Results are given in words; binding and its absence hold for the method and conditions named. Some binding calls cover weakened binding; strength is not graded here.

Chains of the proteins cited; added tags and fusions are not shown. Residues count along the entry.
UniProt P51654, residues 25-559: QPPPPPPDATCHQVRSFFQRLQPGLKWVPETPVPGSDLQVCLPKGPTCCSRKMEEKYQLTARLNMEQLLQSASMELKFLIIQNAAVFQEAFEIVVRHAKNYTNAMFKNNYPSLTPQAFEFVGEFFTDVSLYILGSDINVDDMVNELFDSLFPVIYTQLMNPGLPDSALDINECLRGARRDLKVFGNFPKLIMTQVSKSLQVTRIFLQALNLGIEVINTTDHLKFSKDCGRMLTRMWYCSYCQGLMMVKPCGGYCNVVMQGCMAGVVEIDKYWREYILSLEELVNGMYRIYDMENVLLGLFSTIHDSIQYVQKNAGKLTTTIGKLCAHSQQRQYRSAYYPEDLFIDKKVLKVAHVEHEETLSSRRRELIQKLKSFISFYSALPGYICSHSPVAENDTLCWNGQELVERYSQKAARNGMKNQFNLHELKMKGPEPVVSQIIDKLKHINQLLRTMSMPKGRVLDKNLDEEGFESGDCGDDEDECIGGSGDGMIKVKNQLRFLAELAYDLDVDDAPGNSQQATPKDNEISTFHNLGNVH

Target: AlexaFluor 647-conjugated GPC3 recombinant protein (UniProt P51654)
Assay: magnetic isolation of CAR T cells with labelled recombinant GPC3 and anti-AlexaFluor647 microbeads

binding: binds
B1: GPC3-targeting CAR polypeptide (SEQ ID NO: 105), CD28 costimulatory domain (protein)
chain: DVVMTQSPLSLPVTPGEPASISCRSSQSLVHSNRNTYLHWYLQKPGQSPQLLIYKVSNRFSGVPDRFSGSGSGTDFTLKISRVEAEDVGVYYCSQNTHVPPTFGQGTKLEIKRGGGGSGGGGSGGGGSQVQLVQSGAEVKKPGASVKVSCKASGYTFTDYEMHWVRQAPGQGLEWMGALDPKTGDTAYSQKFKGRVTLTADKSTSTAYMELSSLTSEDTAVYYCTRFYSYTYWGQGTLVTVSSIEVMYPPPYLDNEKSNGTIIHVKGKHLCPSPLFPGPSKPFWVLVVVGGVLACYSLLVTVAFIIFWVRSKRSRLLHSDYMNMTPRRPGPTRKHYQPYAPPRDFAAYRSRVKFSRSADAPAYQQGQNQLYNELNLGRREEYDVLDKRRGRDPEMGGKPRRKNPQEGLYNELQKDKMAEAYSEIGMKGERRRGKGHDGLYQGLSTATKDTYDALHMQALPPR
